Values from PubChem BioAssay AID1259327 (Drosophila RNAi Screening Center, 2017).

Screen: 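Knock-downs altering cellular ATP with no metal added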
System: Drosophila S2R+ cells
Knock-down reagent: long dsRNA against Drosophila genes
Timing: 5 days (water added on day 4, read one day later)
Challenge: water added as vehicle, no metal, one day before read-out
Measured: 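Total ATP measured by luciferase light, scaled to plate mean, duplicates averaged, then z-scored across plates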
Direction: ATP z-score: higher = more total ATP than typical wells; ATP luminescence: higher = more total ATP
Rule for the call: 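a hit is any knock-down whose absolute ATP z-score is greater than 1.5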
Calls: active = hit: ATP up or down; inactive = no clear ATP change
Shown is one part, drawn at random, of about 3,100 reagents. Over the whole deposit, 378 (12%) got an active call. 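Hits include both directions; z-score sign shows ATP rise or fall; raw luminescence values are not plate-normalised.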 Not stated in the record: the amount of reagent.

Ca-alpha1T [DRSC17842] → ATP z-score, duplicate mean = -0.46; ATP luminescence, replicate 1 (RLU) = 8.15e5; ATP luminescence, replicate 2 (RLU) = 8.12e5; Call = inactive
Ca-alpha1T [DRSC18357] → ATP z-score, duplicate mean = 2.24; ATP luminescence, replicate 1 (RLU) = 1.03e6; ATP luminescence, replicate 2 (RLU) = 9.43e5; Call = active
Ca-alpha1T [DRSC21430] → ATP z-score, duplicate mean = 1.34; ATP luminescence, replicate 1 (RLU) = 7.19e5; ATP luminescence, replicate 2 (RLU) = 6.68e5; Call = inactive
wgn [DRSC19998] → ATP z-score, duplicate mean = -0.668; ATP luminescence, replicate 1 (RLU) = 6.34e5; ATP luminescence, replicate 2 (RLU) = 7.08e5; Call = inactive
wgn [DRSC39695] → ATP z-score, duplicate mean = -0.0473; ATP luminescence, replicate 1 (RLU) = 4.32e5; ATP luminescence, replicate 2 (RLU) = 4.94e5; Call = inactive
Delta [DRSC16648] → ATP z-score, duplicate mean = 1.02; ATP luminescence, replicate 1 (RLU) = 3.70e5; ATP luminescence, replicate 2 (RLU) = 8.09e5; Call = inactive
Delta [DRSC24112] → ATP z-score, duplicate mean = 0.541; ATP luminescence, replicate 1 (RLU) = 9.92e5; ATP luminescence, replicate 2 (RLU) = 8.42e5; Call = inactive
CG8086 [DRSC03078] → ATP z-score, duplicate mean = -0.444; ATP luminescence, replicate 1 (RLU) = 4.22e5; ATP luminescence, replicate 2 (RLU) = 4.76e5; Call = inactive
CG8086 [DRSC03079] → ATP z-score, duplicate mean = 0.655; ATP luminescence, replicate 1 (RLU) = 8.53e5; ATP luminescence, replicate 2 (RLU) = 7.40e5; Call = inactive
CG8086 [DRSC27677] → ATP z-score, duplicate mean = -0.102; ATP luminescence, replicate 1 (RLU) = 1.12e6; ATP luminescence, replicate 2 (RLU) = 9.03e5; Call = inactive
plh [DRSC12294] → ATP z-score, duplicate mean = -1.11; ATP luminescence, replicate 1 (RLU) = 7.74e5; ATP luminescence, replicate 2 (RLU) = 7.29e5; Call = inactive
CG6659 [DRSC20003] → ATP z-score, duplicate mean = 0.0655; ATP luminescence, replicate 1 (RLU) = 7.29e5; ATP luminescence, replicate 2 (RLU) = 6.96e5; Call = inactive
CG6659 [DRSC39777] → ATP z-score, duplicate mean = -0.306; ATP luminescence, replicate 1 (RLU) = 4.37e5; ATP luminescence, replicate 2 (RLU) = 4.79e5; Call = inactive
NLaz [DRSC21521] → ATP z-score, duplicate mean = 0.23; ATP luminescence, replicate 1 (RLU) = 5.41e5; ATP luminescence, replicate 2 (RLU) = 6.58e5; Call = inactive
Nhe2 [DRSC03172] → ATP z-score, duplicate mean = -0.84; ATP luminescence, replicate 1 (RLU) = 3.03e5; ATP luminescence, replicate 2 (RLU) = 5.64e5; Call = inactive
Nhe2 [DRSC03377] → ATP z-score, duplicate mean = 0.747; ATP luminescence, replicate 1 (RLU) = 8.19e5; ATP luminescence, replicate 2 (RLU) = 7.92e5; Call = inactive
